According to the supplement of paper PMC10849652:
The other results are listed elsewhere or left out.

Chains of the proteins cited; added tags and fusions are not shown. Lines headed by an entry give the natural chain unless they say otherwise; changes in a name come on top.
UniProt Q9H223: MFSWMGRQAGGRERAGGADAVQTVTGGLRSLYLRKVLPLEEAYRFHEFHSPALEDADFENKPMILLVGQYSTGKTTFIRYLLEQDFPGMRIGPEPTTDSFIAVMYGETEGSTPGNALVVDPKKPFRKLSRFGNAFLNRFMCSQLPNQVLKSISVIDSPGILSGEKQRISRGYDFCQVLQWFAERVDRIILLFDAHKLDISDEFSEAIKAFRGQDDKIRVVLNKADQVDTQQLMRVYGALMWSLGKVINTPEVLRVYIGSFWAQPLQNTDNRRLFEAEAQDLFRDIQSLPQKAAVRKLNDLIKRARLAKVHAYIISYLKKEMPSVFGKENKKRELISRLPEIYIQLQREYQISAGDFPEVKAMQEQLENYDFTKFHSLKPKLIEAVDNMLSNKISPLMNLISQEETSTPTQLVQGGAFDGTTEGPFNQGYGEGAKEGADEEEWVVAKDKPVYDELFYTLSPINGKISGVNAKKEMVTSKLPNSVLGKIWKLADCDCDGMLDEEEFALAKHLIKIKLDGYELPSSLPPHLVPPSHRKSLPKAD
UniProt Q14232, whole entry, looked up: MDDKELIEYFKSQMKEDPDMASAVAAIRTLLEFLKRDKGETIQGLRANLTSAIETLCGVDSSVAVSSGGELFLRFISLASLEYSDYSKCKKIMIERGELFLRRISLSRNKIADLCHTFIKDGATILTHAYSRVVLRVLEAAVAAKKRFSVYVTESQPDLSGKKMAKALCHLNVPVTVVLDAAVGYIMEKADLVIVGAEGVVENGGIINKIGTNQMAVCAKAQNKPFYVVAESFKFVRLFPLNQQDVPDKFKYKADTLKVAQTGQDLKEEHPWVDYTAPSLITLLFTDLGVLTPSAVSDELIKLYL
UniProt Q08426: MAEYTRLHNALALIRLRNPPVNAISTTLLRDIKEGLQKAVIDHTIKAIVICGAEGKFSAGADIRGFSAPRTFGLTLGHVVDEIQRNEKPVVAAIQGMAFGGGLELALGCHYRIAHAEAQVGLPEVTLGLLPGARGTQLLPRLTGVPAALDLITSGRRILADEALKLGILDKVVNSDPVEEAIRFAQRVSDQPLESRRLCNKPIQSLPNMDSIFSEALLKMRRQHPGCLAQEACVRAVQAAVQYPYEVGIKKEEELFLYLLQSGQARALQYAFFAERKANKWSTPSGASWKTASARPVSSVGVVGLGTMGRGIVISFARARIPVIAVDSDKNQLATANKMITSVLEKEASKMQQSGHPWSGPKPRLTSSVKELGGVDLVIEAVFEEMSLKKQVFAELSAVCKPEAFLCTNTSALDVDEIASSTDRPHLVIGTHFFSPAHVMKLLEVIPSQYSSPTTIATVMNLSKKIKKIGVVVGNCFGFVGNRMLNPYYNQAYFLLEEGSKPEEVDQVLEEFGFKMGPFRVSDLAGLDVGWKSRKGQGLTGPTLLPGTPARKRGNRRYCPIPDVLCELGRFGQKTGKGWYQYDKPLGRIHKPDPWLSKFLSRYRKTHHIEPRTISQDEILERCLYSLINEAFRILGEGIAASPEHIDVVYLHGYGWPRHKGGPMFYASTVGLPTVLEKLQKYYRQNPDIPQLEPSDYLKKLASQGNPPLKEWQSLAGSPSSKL
UniProt P09104, whole entry, looked up: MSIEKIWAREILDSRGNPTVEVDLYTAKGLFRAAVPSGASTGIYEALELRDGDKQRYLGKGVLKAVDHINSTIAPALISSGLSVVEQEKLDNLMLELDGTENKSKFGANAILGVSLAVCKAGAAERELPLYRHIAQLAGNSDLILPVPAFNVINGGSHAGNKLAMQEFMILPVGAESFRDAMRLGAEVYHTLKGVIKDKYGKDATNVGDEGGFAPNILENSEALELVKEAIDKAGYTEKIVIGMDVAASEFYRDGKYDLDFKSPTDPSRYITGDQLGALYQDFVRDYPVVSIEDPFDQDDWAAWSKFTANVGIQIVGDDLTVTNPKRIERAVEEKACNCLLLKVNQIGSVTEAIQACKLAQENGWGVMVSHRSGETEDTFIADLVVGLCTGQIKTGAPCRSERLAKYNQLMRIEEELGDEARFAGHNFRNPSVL
UniProt Q8TE02: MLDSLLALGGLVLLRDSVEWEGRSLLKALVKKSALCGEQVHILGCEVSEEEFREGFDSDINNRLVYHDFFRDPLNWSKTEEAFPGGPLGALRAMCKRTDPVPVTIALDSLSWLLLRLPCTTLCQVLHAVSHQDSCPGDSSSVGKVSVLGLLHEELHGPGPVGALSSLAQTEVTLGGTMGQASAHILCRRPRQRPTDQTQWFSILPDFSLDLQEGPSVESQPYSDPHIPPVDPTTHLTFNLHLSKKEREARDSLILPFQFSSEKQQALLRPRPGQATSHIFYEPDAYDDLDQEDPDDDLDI
UniProt P55010, whole entry, looked up: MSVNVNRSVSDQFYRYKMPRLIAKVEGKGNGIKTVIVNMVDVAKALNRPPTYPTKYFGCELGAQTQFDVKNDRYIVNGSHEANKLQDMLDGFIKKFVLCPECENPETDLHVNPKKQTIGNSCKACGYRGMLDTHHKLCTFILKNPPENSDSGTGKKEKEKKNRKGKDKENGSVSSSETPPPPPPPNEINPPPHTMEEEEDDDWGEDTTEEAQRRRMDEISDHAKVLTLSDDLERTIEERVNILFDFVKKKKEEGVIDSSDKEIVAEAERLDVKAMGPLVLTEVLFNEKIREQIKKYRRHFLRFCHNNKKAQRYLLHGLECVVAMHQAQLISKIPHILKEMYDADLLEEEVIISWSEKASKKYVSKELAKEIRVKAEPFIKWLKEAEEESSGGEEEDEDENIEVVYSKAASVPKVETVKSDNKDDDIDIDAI
UniProt Q9UHY7: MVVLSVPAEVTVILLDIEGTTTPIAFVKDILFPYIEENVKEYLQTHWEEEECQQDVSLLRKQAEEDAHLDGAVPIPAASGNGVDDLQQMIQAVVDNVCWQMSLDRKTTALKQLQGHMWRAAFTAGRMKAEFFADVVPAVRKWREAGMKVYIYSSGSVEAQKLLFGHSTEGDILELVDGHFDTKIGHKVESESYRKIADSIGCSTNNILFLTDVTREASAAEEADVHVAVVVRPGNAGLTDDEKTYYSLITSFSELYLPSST
UniProt Q9H9T3: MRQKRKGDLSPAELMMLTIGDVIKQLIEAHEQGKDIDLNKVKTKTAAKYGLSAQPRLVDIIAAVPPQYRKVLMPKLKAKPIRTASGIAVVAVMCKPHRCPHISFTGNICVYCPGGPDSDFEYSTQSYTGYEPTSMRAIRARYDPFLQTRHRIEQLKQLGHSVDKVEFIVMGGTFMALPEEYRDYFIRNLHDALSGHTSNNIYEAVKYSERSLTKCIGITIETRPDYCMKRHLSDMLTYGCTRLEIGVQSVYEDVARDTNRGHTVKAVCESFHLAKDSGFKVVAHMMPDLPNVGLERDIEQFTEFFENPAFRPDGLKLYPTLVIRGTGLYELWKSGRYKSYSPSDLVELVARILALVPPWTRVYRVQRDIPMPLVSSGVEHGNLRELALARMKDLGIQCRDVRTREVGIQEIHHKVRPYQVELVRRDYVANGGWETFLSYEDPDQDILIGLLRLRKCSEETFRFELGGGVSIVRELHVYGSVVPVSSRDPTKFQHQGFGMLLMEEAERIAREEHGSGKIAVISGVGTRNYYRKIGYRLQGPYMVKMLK
UniProt P05198, whole entry, looked up: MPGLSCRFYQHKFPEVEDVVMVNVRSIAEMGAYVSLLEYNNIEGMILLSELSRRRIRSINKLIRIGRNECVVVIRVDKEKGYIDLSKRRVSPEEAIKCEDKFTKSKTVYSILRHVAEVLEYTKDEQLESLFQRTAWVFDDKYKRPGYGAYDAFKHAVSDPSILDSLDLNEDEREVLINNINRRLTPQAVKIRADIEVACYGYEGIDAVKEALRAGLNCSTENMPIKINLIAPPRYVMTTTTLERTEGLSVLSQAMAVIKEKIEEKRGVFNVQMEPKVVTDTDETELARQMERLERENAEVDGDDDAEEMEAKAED
UniProt Q9NR50: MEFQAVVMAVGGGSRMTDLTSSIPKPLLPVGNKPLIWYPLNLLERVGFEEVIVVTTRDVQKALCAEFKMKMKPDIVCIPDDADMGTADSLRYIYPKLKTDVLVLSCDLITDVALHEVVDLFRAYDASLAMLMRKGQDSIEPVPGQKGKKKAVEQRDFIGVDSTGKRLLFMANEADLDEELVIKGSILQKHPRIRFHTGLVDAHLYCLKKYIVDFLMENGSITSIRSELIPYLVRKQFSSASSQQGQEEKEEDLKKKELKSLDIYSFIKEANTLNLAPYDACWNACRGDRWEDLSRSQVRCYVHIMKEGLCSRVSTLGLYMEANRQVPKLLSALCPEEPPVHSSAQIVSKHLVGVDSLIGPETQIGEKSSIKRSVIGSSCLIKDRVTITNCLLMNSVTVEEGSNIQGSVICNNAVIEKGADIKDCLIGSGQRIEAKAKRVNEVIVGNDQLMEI
UniProt Q5J8M3, whole entry, looked up: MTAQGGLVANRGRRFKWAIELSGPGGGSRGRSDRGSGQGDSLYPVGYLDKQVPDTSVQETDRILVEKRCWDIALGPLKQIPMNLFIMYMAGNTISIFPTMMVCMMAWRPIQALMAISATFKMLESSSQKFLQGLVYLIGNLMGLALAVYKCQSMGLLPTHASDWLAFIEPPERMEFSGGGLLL
UniProt Q9Y262, whole entry, looked up: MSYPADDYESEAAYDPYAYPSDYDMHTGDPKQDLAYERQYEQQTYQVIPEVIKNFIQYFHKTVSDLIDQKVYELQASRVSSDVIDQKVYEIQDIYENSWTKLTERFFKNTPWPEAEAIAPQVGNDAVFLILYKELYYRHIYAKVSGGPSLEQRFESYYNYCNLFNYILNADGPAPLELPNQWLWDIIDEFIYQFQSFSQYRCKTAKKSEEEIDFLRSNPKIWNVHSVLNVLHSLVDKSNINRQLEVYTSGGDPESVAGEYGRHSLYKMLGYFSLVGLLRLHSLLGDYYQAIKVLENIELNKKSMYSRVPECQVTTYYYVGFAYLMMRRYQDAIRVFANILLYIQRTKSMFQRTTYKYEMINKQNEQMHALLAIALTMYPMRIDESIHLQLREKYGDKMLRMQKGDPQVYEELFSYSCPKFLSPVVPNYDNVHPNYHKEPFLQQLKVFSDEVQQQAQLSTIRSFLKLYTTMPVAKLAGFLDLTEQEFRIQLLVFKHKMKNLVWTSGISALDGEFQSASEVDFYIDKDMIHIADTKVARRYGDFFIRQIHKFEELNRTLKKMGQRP
UniProt P41567, whole entry, looked up: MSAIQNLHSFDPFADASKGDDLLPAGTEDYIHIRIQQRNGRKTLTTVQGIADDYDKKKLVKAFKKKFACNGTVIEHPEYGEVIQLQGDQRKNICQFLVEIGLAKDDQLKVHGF
UniProt P47813, whole entry, looked up: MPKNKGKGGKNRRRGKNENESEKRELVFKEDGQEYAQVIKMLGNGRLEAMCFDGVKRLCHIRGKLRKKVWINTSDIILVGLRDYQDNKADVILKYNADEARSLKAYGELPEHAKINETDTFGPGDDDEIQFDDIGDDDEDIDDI
UniProt P38919, whole entry, looked up: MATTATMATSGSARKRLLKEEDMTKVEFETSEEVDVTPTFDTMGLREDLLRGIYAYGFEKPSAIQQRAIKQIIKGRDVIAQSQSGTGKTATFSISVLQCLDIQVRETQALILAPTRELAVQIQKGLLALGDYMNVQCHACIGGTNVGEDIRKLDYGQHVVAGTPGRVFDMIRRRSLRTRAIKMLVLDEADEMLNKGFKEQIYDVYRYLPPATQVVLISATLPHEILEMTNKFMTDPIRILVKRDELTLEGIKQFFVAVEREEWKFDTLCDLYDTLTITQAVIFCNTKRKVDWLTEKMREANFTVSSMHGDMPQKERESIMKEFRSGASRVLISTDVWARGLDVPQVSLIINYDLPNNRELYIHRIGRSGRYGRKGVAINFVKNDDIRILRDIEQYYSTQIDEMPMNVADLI

Columns and labels:
Test in all cases: log2 fold change, soluble protein after heating vs DMSO (PISA); higher = thermal stabilisation; K562 cells, 10 uM, 30 min; active = over 0.2 and 3.5 SD of the protein, either way, in both replicates (recomputed)
[1] = compound: CS(=O)(=O)c1ccc(-c2cnc(N)c(C(=O)Nc3ccccc3)n2)cc1
Summary of the method: (§1)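 Soluble protein was quantified by TMTpro 16plex LC-MS/MS after channel sums were equalised. It was obtained as the supernatant after 21,000xg for 90 min from pooled aliquots of K562 cells (2×10^6 cells/mL, 10 μM compound, 30 min) heated for 3 min across 48°C-58°C and extracted in PBS with 0.5% NP-40 at 4°C. Thermal stability values are relative to control samples and come from duplicates. They are given as log2 fold changes.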

crizotinib = compound: C[C@@H](Oc1cc(-c2cnn(C3CCNCC3)c2)cnc1N)c1c(Cl)ccc(F)c1Cl [crizotinib]
Summary of the method: as §1

[2] = compound: C[C@@H]1COCCN1C2=NC(=NC(=C2)C3(CC3)S(=O)(=O)C)C4=C5C=CNC5=CC=C4
Summary of the method: as §1

[3] = compound: C[C@H](C1=CC=C(C=C1)C(=O)NC2=C3C=CNC3=NC=C2)N
Summary of the method: as §1

duvelisib = compound: C[C@H](Nc1ncnc2nc[nH]c12)c1cc2cccc(Cl)c2c(=O)n1-c1ccccc1 [duvelisib]
Summary of the method: as §1

gandotinib = compound: Cc1cc(Nc2cc(CN3CCOCC3)c3nc(C)c(Cc4ccc(Cl)cc4F)n3n2)n[nH]1 [gandotinib]
Summary of the method: as §1

tozasertib = compound: Cc1cc(Nc2cc(N3CCN(C)CC3)nc(Sc3ccc(NC(=O)C4CC4)cc3)n2)n[nH]1 [tozasertib]
Summary of the method: as §1

[4] = compound: Cc1cc(SCc2sc(-c3ccc(C(F)(F)F)cc3)nc2C)ccc1OCC(=O)O
Summary of the method: as §1

doramapimod = compound: Cc1ccc(-n2nc(C(C)(C)C)cc2NC(=O)Nc2ccc(OCCN3CCOCC3)c3ccccc23)cc1 [doramapimod]
Summary of the method: as §1

ispinesib = compound: Cc1ccc(C(=O)N(CCCN)[C@@H](c2nc3cc(Cl)ccc3c(=O)n2Cc2ccccc2)C(C)C)cc1 [ispinesib]
Summary of the method: as §1

bafetinib = compound: Cc1ccc(NC(=O)c2ccc(CN3CC[C@H](N(C)C)C3)c(C(F)(F)F)c2)cc1Nc1nccc(-c2cncnc2)n1 [bafetinib]
Summary of the method: as §1

[5] = compound: Cc1cccc(CC(=O)N2CCc3c2ccc(-c2cn(C)c4ncnc(N)c24)c3F)n1
Summary of the method: as §1

nilotinib = compound: Cc1cn(-c2cc(NC(=O)c3ccc(C)c(Nc4nccc(-c5cccnc5)n4)c3)cc(C(F)(F)F)c2)cn1 [nilotinib]
Summary of the method: as §1

[6] = compound: Cc1nc(Nc2n[nH]c3c2CN(C(=O)N[C@H](CN(C)C)c2ccccc2)C3(C)C)c2sccc2n1
Summary of the method: as §1

dasatinib = compound: Cc1nc(Nc2ncc(C(=O)Nc3c(C)cccc3Cl)s2)cc(N2CCN(CCO)CC2)n1 [dasatinib]
Summary of the method: as §1

[7] = compound: Cc1ncc(-c2ccnc(Nc3ccc(S(C)(=O)=O)cc3)n2)n1C(C)C
Summary of the method: as §1

[8] = compound: Cn1cc(-c2ccc3c(c2)CCN3C(=O)Cc2cccc(C(F)(F)F)c2)c2c(N)ncnc21
Summary of the method: as §1

[9] = compound: Cn1cc(-c2ccc3nnc(C(F)(F)c4ccc5ncccc5c4)n3n2)cn1
Summary of the method: as §1

tipifarnib = compound: Cn1cncc1[C@@](N)(c1ccc(Cl)cc1)c1ccc2c(c1)c(-c1cccc(Cl)c1)cc(=O)n2C [tipifarnib]
Summary of the method: as §1

mubritinib = compound: FC(F)(F)c1ccc(/C=C/c2nc(COc3ccc(CCCCn4ccnn4)cc3)co2)cc1 [mubritinib]
Summary of the method: as §1

Measured: log2 fold change

EHD4 (UniProt Q9H223)
inactive: [1] 0.011 | crizotinib -0.066 | [2] 0.079 | [3] -0.024 | duvelisib 0.029 | gandotinib -0.062 | tozasertib -0.005 | [4] -0.002 | doramapimod -0.005 | ispinesib -0.066 | bafetinib -0.075 | [5] 0.004 | nilotinib -0.096 | [6] -0.014 | dasatinib -0.065 | [7] -0.012 | [8] -0.011 | [9] -0.011 | tipifarnib -0.079 | mubritinib -0.017

EIF2B1 (UniProt Q14232)
inactive: [1] -0.012 | crizotinib 0.016 | [2] -0.002 | [3] -0.119 | duvelisib 0 | gandotinib 0.029 | tozasertib -0.002 | [4] -0.001 | doramapimod -0.048 | ispinesib 0.042 | bafetinib 0 | [5] 0.013 | nilotinib 0.026 | [6] 0.019 | dasatinib 0.012 | [7] -0.001 | [8] 0.001 | [9] 0.01 | tipifarnib -0.013 | mubritinib 0.036

EHHADH (UniProt Q08426)
inactive: [1] 0 | crizotinib 0.046 | [2] 0.077 | [3] 0.016 | duvelisib 0.086 | gandotinib -0.034 | tozasertib -0.037 | [4] 0.071 | doramapimod -0.019 | ispinesib 0.043 | bafetinib 0.019 | [5] 0.047 | nilotinib -0.081 | [6] -0.046 | dasatinib -0.012 | [7] 0.01 | [8] 0.056 | [9] -0.012 | tipifarnib 0.044 | mubritinib 0.074

ENO2 (UniProt P09104)
inactive: [1] -0.024 | crizotinib -0.047 | [2] 0.038 | [3] -0.067 | duvelisib 0.033 | gandotinib -0.007 | tozasertib -0.008 | [4] -0.029 | doramapimod -0.007 | ispinesib -0.019 | bafetinib -0.002 | [5] 0.016 | nilotinib 0.016 | [6] 0.021 | dasatinib 0.006 | [7] 0.015 | [8] -0.015 | [9] -0.034 | tipifarnib -0.023 | mubritinib 0.015

EMC2 (UniProt Q15006)
inactive: [1] -0.014 | crizotinib -0.023 | [2] -0.034 | [3] -0.029 | duvelisib 0.018 | gandotinib -0.054 | tozasertib 0.041 | [4] 0.058 | doramapimod 0 | ispinesib 0.11 | bafetinib 0.011 | [5] 0.046 | nilotinib -0.003 | [6] 0.003 | dasatinib -0.08 | [7] -0.022 | [8] 0.058 | [9] -0.025 | tipifarnib -0.037 | mubritinib 0.07

ELP5 isoform 4 (UniProt Q8TE02)
inactive: [1] 0.019 | crizotinib 0.042 | [2] 0.007 | [3] -0.016 | duvelisib 0.02 | gandotinib 0.01 | tozasertib -0.063 | [4] -0.051 | doramapimod -0.061 | ispinesib 0.012 | bafetinib -0.015 | [5] -0.039 | nilotinib 0.037 | [6] 0.009 | dasatinib 0.047 | [7] -0.031 | [8] 0.003 | [9] 0.02 | tipifarnib 0.105 | mubritinib 0.05

EIF5 (UniProt P55010)
inactive: [1] 0.023 | crizotinib 0.045 | [2] 0.055 | [3] -0.08 | duvelisib 0.038 | gandotinib -0.018 | tozasertib 0.008 | [4] 0.034 | doramapimod -0.041 | ispinesib 0.031 | bafetinib -0.029 | [5] 0.002 | nilotinib -0.012 | [6] -0.013 | dasatinib -0.111 | [7] 0.014 | [8] 0.034 | [9] -0.002 | tipifarnib -0.055 | mubritinib 0.049

4 neighbouring records out of the list so far, for reference:
EIF2B1 (UniProt Q14232)
inactive: [1] -0.012 | crizotinib 0.016 | [2] -0.002 | [3] -0.119 | duvelisib 0 | gandotinib 0.029 | tozasertib -0.002 | [4] -0.001 | doramapimod -0.048 | ispinesib 0.042 | bafetinib 0 | [5] 0.013 | nilotinib 0.026 | [6] 0.019 | dasatinib 0.012 | [7] -0.001 | [8] 0.001 | [9] 0.01 | tipifarnib -0.013 | mubritinib 0.036

EHHADH (UniProt Q08426)
inactive: [1] 0 | crizotinib 0.046 | [2] 0.077 | [3] 0.016 | duvelisib 0.086 | gandotinib -0.034 | tozasertib -0.037 | [4] 0.071 | doramapimod -0.019 | ispinesib 0.043 | bafetinib 0.019 | [5] 0.047 | nilotinib -0.081 | [6] -0.046 | dasatinib -0.012 | [7] 0.01 | [8] 0.056 | [9] -0.012 | tipifarnib 0.044 | mubritinib 0.074

ENO2 (UniProt P09104)
inactive: [1] -0.024 | crizotinib -0.047 | [2] 0.038 | [3] -0.067 | duvelisib 0.033 | gandotinib -0.007 | tozasertib -0.008 | [4] -0.029 | doramapimod -0.007 | ispinesib -0.019 | bafetinib -0.002 | [5] 0.016 | nilotinib 0.016 | [6] 0.021 | dasatinib 0.006 | [7] 0.015 | [8] -0.015 | [9] -0.034 | tipifarnib -0.023 | mubritinib 0.015

EMC2 (UniProt Q15006)
inactive: [1] -0.014 | crizotinib -0.023 | [2] -0.034 | [3] -0.029 | duvelisib 0.018 | gandotinib -0.054 | tozasertib 0.041 | [4] 0.058 | doramapimod 0 | ispinesib 0.11 | bafetinib 0.011 | [5] 0.046 | nilotinib -0.003 | [6] 0.003 | dasatinib -0.08 | [7] -0.022 | [8] 0.058 | [9] -0.025 | tipifarnib -0.037 | mubritinib 0.07

Further entries follow:

ENOPH1 (UniProt Q9UHY7)
inactive: [1] 0.173 | crizotinib -0.28 | [2] 0.031 | [3] -0.095 | duvelisib 0.132 | gandotinib 0.004 | tozasertib 0.044 | [4] 0.193 | doramapimod -0.024 | ispinesib -0.051 | bafetinib 0.121 | [5] 0.141 | nilotinib -0.044 | [6] 0.02 | dasatinib -0.082 | [7] 0.048 | [8] 0.114 | [9] 0.104 | tipifarnib -0.194 | mubritinib 0.273

ELP3 (UniProt Q9H9T3)
inactive: [1] 0.057 | crizotinib 0.043 | [2] -0.012 | [3] -0.042 | duvelisib 0.015 | gandotinib 0.005 | tozasertib 0.013 | [4] 0.001 | doramapimod -0.007 | ispinesib 0.055 | bafetinib -0.016 | [5] -0.004 | nilotinib 0.033 | [6] -0.043 | dasatinib 0.004 | [7] 0.026 | [8] 0.034 | [9] 0.008 | tipifarnib -0.007 | mubritinib 0.016

EIF2S1 (UniProt P05198)
inactive: [1] -0.023 | crizotinib -0.013 | [2] -0.115 | [3] 0.105 | duvelisib -0.007 | gandotinib 0.067 | tozasertib -0.029 | [4] 0.013 | doramapimod 0.048 | ispinesib -0.101 | bafetinib 0.08 | [5] -0.021 | nilotinib -0.074 | [6] 0.056 | dasatinib 0.028 | [7] 0.009 | [8] -0.047 | [9] -0.044 | tipifarnib 0.05 | mubritinib -0.026

EIF2B3 (UniProt Q9NR50)
inactive: [1] 0.032 | crizotinib -0.036 | [2] -0.073 | [3] 0.012 | duvelisib -0.037 | gandotinib -0.005 | tozasertib 0.04 | [4] 0.066 | doramapimod 0.018 | ispinesib -0.013 | bafetinib 0.021 | [5] -0.026 | nilotinib -0.043 | [6] -0.058 | dasatinib -0.012 | [7] -0.022 | [8] -0.116 | [9] -0.027 | tipifarnib -0.021 | mubritinib -0.011

EMC4 (UniProt Q5J8M3)
inactive: [1] 0 | crizotinib 0.105 | [2] 0.09 | [3] -0.007 | duvelisib 0.137 | gandotinib 0.034 | tozasertib 0.007 | [4] 0.041 | doramapimod 0.079 | ispinesib 0.035 | bafetinib -0.025 | [5] -0.001 | nilotinib 0.027 | [6] 0.009 | dasatinib -0.018 | [7] -0.034 | [8] 0.024 | [9] 0.083 | tipifarnib 0.014 | mubritinib 0.103

EIF3L (UniProt Q9Y262)
inactive: [1] -0.023 | crizotinib -0.064 | [2] 0.015 | [3] -0.022 | duvelisib 0.052 | gandotinib -0.044 | tozasertib -0.012 | [4] -0.001 | doramapimod 0.015 | ispinesib 0.003 | bafetinib -0.014 | [5] 0.017 | nilotinib 0.003 | [6] -0.001 | dasatinib -0.046 | [7] -0.047 | [8] 0.009 | [9] 0.001 | tipifarnib -0.002 | mubritinib 0.014

EIF1 (UniProt P41567)
inactive: [1] 0.018 | crizotinib 0.042 | [2] -0.075 | [3] -0.063 | duvelisib 0.029 | gandotinib 0.07 | tozasertib -0.013 | [4] -0.025 | doramapimod -0.027 | ispinesib 0.001 | bafetinib -0.075 | [5] 0.02 | nilotinib 0.011 | [6] 0.037 | dasatinib 0 | [7] -0.061 | [8] -0.036 | [9] -0.019 | tipifarnib -0.026 | mubritinib 0

EIF1AX (UniProt P47813)
inactive: [1] -0.012 | crizotinib -0.011 | [2] -0.048 | [3] -0.06 | duvelisib -0.014 | gandotinib -0.021 | tozasertib 0.002 | [4] 0.041 | doramapimod 0.012 | ispinesib 0.094 | bafetinib 0.05 | [5] 0.038 | nilotinib 0.029 | [6] 0.052 | dasatinib -0.028 | [7] 0.024 | [8] -0.003 | [9] -0.012 | tipifarnib -0.098 | mubritinib 0.032

EIF4A3 (UniProt P38919)
inactive: [1] 0.028 | crizotinib 0.179 | [2] 0.057 | [3] -0.001 | duvelisib 0.009 | gandotinib 0.048 | tozasertib 0 | [4] 0.026 | doramapimod -0.045 | ispinesib 0.041 | bafetinib 0.045 | [5] -0.046 | nilotinib 0.049 | [6] -0.002 | dasatinib 0.01 | [7] 0.082 | [8] 0.002 | [9] 0.012 | tipifarnib -0.019 | mubritinib 0.02
